Reference: the supplement of paper PMC10849652
Some of the results follow.

The chains behind the UniProt entries cited, without tags or fusion partners. Where a name states a change or a piece, a line headed by the entry shows the natural chain unless it says otherwise.
UniProt Q96L93: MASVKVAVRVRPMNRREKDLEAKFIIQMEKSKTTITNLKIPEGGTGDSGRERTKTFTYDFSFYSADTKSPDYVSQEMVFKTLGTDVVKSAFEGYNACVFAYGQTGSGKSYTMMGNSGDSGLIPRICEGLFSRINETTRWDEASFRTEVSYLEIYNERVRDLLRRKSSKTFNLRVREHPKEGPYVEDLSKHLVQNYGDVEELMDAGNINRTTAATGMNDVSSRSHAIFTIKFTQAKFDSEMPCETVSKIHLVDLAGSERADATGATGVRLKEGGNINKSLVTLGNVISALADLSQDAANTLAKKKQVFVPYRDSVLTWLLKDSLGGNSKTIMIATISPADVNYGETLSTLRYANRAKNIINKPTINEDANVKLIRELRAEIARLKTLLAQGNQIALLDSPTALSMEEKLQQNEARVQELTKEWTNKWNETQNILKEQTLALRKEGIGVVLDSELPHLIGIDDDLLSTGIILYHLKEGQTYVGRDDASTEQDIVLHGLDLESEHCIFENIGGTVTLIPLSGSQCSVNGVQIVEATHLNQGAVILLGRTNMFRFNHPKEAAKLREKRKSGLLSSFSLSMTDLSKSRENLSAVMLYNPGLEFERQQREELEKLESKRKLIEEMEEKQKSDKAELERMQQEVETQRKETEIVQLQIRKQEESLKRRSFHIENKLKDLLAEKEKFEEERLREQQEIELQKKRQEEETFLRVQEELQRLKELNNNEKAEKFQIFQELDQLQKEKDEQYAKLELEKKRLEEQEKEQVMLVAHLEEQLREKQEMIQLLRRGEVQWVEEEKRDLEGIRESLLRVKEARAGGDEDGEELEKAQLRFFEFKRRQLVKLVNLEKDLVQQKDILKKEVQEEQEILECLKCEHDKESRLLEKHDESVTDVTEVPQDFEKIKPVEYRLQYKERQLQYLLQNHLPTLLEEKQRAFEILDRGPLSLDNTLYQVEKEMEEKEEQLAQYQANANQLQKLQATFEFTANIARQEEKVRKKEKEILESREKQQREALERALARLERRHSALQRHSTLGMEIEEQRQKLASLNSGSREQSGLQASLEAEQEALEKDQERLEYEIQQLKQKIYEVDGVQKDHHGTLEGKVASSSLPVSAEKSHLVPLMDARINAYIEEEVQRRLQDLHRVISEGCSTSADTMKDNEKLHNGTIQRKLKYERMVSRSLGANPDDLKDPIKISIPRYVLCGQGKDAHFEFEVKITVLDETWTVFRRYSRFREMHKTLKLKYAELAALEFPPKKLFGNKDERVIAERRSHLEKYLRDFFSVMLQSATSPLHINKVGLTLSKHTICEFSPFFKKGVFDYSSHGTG
UniProt Q92845: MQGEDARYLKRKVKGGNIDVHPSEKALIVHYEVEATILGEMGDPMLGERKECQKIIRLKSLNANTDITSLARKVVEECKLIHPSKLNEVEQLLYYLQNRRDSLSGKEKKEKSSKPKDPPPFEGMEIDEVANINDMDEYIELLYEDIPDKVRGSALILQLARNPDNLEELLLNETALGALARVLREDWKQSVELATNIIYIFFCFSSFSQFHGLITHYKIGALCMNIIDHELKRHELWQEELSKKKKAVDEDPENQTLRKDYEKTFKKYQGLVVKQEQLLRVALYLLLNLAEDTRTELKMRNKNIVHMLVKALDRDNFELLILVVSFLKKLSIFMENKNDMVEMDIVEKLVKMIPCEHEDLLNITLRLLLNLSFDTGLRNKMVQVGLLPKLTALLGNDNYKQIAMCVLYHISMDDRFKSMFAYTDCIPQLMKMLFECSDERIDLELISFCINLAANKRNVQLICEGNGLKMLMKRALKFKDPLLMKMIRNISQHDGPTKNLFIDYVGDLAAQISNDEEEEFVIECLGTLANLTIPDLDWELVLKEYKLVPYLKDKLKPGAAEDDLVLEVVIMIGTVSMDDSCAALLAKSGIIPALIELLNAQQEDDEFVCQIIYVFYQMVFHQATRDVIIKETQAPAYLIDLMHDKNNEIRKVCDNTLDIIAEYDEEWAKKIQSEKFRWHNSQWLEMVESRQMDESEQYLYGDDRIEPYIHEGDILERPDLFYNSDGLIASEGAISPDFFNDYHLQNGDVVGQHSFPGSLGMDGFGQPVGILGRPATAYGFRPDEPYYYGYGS
UniProt O95239: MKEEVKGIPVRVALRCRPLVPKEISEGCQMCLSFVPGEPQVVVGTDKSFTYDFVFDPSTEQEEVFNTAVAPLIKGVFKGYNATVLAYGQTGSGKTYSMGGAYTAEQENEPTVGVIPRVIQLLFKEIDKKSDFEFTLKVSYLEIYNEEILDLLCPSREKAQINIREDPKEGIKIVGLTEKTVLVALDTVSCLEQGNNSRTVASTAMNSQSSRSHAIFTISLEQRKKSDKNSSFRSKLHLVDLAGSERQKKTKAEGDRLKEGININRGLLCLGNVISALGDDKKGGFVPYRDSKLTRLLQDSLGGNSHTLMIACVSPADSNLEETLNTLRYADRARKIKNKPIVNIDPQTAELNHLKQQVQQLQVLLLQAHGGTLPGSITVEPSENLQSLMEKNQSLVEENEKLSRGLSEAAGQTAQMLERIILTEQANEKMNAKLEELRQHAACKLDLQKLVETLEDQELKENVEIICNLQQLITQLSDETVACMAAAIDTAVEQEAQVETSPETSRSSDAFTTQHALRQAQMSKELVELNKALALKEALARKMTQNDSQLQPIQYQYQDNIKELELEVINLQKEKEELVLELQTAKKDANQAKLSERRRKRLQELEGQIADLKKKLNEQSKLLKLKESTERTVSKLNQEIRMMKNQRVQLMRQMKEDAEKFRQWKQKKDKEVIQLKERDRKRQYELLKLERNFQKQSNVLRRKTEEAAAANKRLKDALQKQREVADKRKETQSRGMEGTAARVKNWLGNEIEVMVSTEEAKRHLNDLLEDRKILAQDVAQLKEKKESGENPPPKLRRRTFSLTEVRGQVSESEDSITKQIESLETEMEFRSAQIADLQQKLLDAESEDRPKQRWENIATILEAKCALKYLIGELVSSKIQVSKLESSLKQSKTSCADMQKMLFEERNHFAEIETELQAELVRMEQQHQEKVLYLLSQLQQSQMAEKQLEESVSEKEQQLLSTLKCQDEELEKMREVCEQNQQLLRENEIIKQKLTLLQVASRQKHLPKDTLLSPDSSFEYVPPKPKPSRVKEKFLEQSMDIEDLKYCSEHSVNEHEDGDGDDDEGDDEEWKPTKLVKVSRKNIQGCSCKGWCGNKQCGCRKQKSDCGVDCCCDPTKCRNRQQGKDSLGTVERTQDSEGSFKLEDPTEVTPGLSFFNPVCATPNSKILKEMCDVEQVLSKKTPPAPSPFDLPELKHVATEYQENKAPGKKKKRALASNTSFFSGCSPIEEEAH
UniProt Q8IZD2: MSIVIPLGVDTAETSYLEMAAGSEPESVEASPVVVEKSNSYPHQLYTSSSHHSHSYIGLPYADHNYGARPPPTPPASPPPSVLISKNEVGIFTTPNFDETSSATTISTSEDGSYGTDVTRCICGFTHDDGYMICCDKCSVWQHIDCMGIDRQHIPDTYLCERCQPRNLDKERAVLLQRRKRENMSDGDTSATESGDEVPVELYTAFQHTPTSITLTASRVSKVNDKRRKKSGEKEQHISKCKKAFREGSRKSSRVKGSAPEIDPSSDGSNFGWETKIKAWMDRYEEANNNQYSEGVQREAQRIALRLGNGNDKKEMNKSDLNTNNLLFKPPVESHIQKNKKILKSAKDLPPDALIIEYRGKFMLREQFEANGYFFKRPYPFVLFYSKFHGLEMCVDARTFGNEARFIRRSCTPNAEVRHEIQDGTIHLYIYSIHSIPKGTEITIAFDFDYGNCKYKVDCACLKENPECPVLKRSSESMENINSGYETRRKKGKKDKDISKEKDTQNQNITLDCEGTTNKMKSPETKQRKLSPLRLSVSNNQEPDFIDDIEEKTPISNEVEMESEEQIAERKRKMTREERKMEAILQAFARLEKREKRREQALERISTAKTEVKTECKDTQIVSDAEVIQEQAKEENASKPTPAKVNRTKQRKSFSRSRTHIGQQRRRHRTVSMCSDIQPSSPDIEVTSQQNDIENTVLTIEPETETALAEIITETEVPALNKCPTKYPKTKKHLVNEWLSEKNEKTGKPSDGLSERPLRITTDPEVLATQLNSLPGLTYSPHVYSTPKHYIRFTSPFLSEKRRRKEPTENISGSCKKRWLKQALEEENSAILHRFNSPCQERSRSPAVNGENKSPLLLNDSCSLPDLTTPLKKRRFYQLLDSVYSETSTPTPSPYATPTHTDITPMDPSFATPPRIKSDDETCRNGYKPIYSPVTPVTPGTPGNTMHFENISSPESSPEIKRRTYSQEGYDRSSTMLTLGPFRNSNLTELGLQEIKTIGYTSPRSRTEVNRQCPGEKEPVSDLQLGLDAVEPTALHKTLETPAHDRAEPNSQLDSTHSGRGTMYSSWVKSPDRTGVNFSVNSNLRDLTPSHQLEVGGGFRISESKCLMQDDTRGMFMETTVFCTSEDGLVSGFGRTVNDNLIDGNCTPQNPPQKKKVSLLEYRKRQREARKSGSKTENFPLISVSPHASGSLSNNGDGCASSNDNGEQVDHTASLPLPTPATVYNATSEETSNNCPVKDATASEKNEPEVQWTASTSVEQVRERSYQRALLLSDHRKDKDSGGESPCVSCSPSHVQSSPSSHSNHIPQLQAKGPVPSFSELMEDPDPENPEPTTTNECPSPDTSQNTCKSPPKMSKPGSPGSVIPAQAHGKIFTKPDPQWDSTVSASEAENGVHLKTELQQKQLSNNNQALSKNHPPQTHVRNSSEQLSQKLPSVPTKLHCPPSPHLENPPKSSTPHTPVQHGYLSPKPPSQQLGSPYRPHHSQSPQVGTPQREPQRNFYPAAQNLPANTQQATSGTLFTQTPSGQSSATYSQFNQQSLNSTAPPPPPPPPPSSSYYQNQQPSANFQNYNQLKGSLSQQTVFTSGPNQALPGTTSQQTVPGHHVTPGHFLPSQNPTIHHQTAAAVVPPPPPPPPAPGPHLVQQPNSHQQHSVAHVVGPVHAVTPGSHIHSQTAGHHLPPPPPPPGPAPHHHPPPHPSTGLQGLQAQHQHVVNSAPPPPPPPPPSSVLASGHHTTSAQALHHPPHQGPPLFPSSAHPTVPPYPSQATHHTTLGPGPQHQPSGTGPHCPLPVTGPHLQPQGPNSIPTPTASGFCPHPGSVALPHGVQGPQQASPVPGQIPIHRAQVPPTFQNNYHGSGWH
UniProt Q6TDP4, whole entry, looked up: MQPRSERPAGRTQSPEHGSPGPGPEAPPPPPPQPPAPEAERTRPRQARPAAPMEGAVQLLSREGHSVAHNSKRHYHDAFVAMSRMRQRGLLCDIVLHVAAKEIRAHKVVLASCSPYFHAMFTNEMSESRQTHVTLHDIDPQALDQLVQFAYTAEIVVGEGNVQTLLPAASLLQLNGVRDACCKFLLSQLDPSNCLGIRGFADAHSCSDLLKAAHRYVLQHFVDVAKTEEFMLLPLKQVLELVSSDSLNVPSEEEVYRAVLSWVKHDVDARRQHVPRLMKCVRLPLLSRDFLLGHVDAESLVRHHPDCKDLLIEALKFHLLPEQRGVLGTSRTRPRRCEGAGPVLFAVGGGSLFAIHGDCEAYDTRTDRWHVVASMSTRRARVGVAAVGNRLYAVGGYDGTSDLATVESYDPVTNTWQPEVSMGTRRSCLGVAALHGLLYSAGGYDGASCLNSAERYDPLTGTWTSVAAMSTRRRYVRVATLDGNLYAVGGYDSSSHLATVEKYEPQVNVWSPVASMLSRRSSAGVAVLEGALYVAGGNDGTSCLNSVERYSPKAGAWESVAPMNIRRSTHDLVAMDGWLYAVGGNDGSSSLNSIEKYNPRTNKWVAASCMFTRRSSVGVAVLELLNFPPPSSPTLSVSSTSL
UniProt O43731: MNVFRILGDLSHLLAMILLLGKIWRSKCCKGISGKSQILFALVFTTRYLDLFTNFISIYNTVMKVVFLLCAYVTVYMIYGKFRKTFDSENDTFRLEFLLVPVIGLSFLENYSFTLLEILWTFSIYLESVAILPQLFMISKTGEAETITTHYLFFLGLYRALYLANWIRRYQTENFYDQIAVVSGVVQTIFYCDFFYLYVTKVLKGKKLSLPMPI
UniProt Q8NAX2: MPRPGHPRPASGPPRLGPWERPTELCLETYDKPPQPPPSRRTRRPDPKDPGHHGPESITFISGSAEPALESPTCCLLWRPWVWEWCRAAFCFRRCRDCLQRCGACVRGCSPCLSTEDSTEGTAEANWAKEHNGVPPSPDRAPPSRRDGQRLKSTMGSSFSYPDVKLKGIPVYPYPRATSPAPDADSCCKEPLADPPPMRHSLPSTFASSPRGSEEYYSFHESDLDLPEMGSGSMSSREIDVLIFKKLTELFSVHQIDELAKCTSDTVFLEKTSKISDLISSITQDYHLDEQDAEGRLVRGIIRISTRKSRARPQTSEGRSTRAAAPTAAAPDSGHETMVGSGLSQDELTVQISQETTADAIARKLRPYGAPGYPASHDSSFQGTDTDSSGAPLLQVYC

Assays:
Assay in all cases: log2 fold change, soluble protein after heating vs DMSO (PISA); higher = thermal stabilisation; K562 cells, 10 uM, 30 min; active = over 0.2 and 3.5 SD of the protein, either way, in both replicates (recomputed)
[1] = compound: CC1=C(C=C(C=C1)NC(=O)C2=CC(=CC=C2)N(C)C)NC(=O)C3=CC=C(C=C3)O
Method in brief: (§1)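 K562 cells at 2×10^6 cells/mL were treated with 10 μM compound for 30 min. Aliquots were heated for 3 min across 48°C-58°C, pooled, and extracted in PBS with 0.5% NP-40 at 4°C; soluble protein was the supernatant after 21,000xg for 90 min. Soluble protein was quantified by TMTpro 16plex LC-MS/MS with channel sums equalised, and reported as log2 fold change in thermal stability against DMSO controls, with values from duplicates.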

[2] = compound: CC[C@@H]1C(=O)N(C)c2cnc(Nc3ccc(C(=O)NC4CCN(C)CC4)cc3OC)nc2N1C1CCCC1
Method in brief: as §1

[3] = compound: CN1C2=C(C3=C1C(=O)N(N=C3)CC4=CC(=CC=C4)N)SC(=C2)S(=O)C
Method in brief: as §1

[4] = compound: CCn1cc(-c2ccnc3[nH]c(-c4cccc(CN(C)C)c4)cc23)c(-c2ccc(NC(=O)N(C)C)cc2)n1
Method in brief: as §1

[5] = compound: CN1CCC(CNc2ccc3ncc(-c4cccc(OC(F)(F)F)c4)n3n2)CC1
Method in brief: as §1

Nexturastat A = compound: CCCCN(Cc1ccc(C(=O)NO)cc1)C(=O)Nc1ccccc1 [Nexturastat A]
Method in brief: as §1

givinostat = compound: CCN(CC)Cc1ccc2cc(COC(=O)Nc3ccc(C(=O)NO)cc3)ccc2c1 [givinostat]
Method in brief: as §1

barasertib = compound: CCN(CCCOc1ccc2c(Nc3cc(CC(=O)Nc4cccc(F)c4)[nH]n3)ncnc2c1)CCOP(=O)(O)O [barasertib]
Method in brief: as §1

[6] = compound: CC[C@H](C)N1C=C(C2=C(C=C(C=C21)C3=CN=C(C=C3)N4CCNCC4)C(=O)NCC5=C(C=C(NC5=O)C)C)C
Method in brief: as §1

epoxomicin = compound: CC[C@H](C)[C@@H](C(=O)N[C@@H]([C@@H](C)O)C(=O)N[C@@H](CC(C)C)C(=O)[C@]1(CO1)C)NC(=O)[C@H]([C@@H](C)CC)N(C)C(=O)C [epoxomicin]
Method in brief: as §1

[7] = compound: CCn1c(C(=O)N(C2CC2)C2CC2)cc2c3c(ncn3C)c(Nc3cc(C)n(C)n3)nc21
Method in brief: as §1

rosiglitazone = compound: CN(CCOC1=CC=C(C=C1)C[C@H]2C(=O)NC(=O)S2)C3=CC=CC=N3 (racemic) [rosiglitazone]
Method in brief: as §1

[8] = compound: CC1=NC(=CC=C1)C2=C(N=C(N2)C(C)(C)C)C3=CC4=NC=CN=C4C=C3
Method in brief: as §1

vemurafenib = compound: CCCS(=O)(=O)Nc1ccc(F)c(C(=O)c2c[nH]c3ncc(-c4ccc(Cl)cc4)cc23)c1F [vemurafenib]
Method in brief: as §1

[9] = compound: CN(C)CC(=O)Nc1ccc2[nH]c(=O)c3ccccc3c2c1
Method in brief: as §1

[10] = compound: CCCc1cc(C)[nH]c(=O)c1CNC(=O)c1cc(-c2ccnc(N3CCN(C)CC3)c2)cc2c1cnn2C(C)C
Method in brief: as §1

[11] = compound: CC1=CC=C(C=C1)SC2=C3C=C(SC3=CN=C2)C(=O)N
Method in brief: as §1

[12] = compound: CCCS(=O)(=O)Nc1ccc(F)c(C(=O)c2c[nH]c3ncc(Cl)cc23)c1F
Method in brief: as §1

volasertib = compound: CC[C@@H]1C(=O)N(C)c2cnc(Nc3ccc(C(=O)N[C@H]4CC[C@H](N5CCN(CC6CC6)CC5)CC4)cc3OC)nc2N1C(C)C [volasertib]
Method in brief: as §1

Measured: log2 fold change

KIF16B isoform 2 (UniProt Q96L93)
inactive: [1] -0.019 | [2] -0.028 | [3] 0.026

KIF20B isoform 2 (UniProt Q96Q89)
inactive: [1] 0.111 | [4] 0.07 | [5] -0.136

KALRN (UniProt O60229)
inactive: Nexturastat A 0.017 | givinostat 0.228 | barasertib 0.036 | [2] -0.269 | [6] -0.196 | epoxomicin -0.06 | [7] 0.223 | rosiglitazone -0.005

KIFAP3 (UniProt Q92845)
inactive: [8] -0.017 | Nexturastat A -0.051 | barasertib 0.289 | [2] 0.137 | [6] 0.03 | epoxomicin 0.032 | rosiglitazone 0.114

KIF4A (UniProt O95239)
inactive: vemurafenib -0.093 | [2] -0.116 | [4] -0.058 | [9] 0.215 | [3] -0.396 | [5] 0.043

KMT2E (UniProt Q8IZD2)
inactive: Nexturastat A -0.086 | givinostat 0.021 | epoxomicin 0.004 | [7] 0.043 | [3] 0.143

KLHL17 (UniProt Q6TDP4)
inactive: Nexturastat A 0.228 | epoxomicin 0.081

KDELR3 (UniProt O43731)
inactive: [8] 0.135 | [10] -0.114 | givinostat 0.044 | barasertib 0.082 | [6] -0.008 | [7] -0.001 | rosiglitazone -0.085 | [3] 0.011

KLK10 (UniProt O43240)
inactive: [2] 0.078

KLHL36 (UniProt Q8N4N3)
inactive: Nexturastat A 0.072 | [10] -0.041 | [2] -0.016 | [6] 0.031 | epoxomicin -0.012

KLHDC10 (UniProt Q6PID8)
inactive: [11] 0.061 | [12] 0.14 | volasertib -0.045 | [4] 0.069 | [5] 0.022

KDF1 (UniProt Q8NAX2)
inactive: [1] -0.054 | [8] -0.082 | givinostat 0 | [7] -0.001 | [3] 0.283
